Experimental data reported in paper PMC7851568.
These are yes or no findings as the source states them, for the method shown. Binding seen in cells or lysates may run through a third protein. Some binding calls cover weakened binding; strength is not graded here.

The chains behind the UniProt entries cited, without tags or fusion partners.
UniProt P49327: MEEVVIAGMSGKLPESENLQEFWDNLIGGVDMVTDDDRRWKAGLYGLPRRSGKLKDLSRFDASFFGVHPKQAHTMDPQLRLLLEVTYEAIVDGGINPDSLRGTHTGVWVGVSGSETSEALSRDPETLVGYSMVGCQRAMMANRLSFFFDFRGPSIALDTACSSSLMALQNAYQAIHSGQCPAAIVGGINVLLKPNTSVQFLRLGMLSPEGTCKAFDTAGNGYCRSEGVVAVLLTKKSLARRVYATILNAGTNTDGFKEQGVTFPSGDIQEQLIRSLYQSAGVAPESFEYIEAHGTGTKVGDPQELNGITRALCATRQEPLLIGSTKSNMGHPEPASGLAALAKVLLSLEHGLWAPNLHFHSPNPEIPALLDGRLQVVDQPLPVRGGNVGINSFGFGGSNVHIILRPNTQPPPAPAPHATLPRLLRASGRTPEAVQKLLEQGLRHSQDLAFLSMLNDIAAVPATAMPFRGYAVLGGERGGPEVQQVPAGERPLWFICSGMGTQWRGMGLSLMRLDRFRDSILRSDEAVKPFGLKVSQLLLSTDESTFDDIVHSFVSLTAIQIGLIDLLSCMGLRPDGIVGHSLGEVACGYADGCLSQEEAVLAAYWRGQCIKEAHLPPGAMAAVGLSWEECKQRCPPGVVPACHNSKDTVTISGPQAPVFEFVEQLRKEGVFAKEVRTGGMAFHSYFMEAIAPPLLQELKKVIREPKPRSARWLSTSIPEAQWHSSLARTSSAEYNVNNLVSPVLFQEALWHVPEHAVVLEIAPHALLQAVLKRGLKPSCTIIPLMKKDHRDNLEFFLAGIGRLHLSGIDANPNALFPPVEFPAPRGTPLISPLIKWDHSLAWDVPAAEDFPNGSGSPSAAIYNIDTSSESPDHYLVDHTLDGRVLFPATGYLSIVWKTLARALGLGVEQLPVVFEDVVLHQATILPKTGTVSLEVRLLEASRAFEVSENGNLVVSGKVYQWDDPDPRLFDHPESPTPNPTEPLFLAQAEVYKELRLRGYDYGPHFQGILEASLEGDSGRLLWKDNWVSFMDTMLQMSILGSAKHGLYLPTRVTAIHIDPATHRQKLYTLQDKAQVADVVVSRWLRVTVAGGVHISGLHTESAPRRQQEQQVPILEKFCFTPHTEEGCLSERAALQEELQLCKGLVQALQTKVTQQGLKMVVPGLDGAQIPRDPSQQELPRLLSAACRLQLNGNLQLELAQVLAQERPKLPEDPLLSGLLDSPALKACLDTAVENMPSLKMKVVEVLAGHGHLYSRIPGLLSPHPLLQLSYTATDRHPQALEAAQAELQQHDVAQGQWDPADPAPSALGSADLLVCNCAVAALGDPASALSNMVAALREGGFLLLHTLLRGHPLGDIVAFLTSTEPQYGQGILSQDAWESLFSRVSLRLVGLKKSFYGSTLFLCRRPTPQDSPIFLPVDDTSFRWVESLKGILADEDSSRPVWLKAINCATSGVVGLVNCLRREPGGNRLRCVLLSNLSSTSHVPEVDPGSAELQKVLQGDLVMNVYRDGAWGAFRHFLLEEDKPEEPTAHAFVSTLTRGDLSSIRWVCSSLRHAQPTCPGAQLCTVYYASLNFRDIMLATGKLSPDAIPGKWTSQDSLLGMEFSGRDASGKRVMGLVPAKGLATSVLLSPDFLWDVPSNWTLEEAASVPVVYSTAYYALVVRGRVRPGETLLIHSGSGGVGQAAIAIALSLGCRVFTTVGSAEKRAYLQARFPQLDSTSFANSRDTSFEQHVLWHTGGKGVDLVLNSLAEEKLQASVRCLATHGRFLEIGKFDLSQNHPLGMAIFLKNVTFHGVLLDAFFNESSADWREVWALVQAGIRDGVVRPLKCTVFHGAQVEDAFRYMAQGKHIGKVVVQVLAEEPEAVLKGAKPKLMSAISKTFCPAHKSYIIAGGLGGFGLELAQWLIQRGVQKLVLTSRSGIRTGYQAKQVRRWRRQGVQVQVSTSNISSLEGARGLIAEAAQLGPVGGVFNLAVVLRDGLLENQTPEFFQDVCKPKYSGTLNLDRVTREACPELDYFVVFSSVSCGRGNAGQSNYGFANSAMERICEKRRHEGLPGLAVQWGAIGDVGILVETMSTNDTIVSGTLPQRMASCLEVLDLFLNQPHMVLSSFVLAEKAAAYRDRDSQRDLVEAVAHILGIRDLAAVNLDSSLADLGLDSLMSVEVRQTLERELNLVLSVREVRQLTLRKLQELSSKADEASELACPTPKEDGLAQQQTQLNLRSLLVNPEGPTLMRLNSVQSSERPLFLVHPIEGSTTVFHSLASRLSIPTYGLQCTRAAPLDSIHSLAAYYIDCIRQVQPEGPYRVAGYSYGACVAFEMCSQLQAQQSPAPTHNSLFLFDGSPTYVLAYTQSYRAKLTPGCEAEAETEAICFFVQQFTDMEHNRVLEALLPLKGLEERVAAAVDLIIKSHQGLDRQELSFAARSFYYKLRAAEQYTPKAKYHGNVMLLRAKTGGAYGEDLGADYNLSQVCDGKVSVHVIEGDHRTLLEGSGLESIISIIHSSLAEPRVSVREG

Biological target: fatty acid synthase (human (endogenous in DG75)) (UniProt P49327)
Assay: co-IP; lysate of 10 million LMP1- (empty vector) or LMP1+ DG75 cells in RIPA buffer; 10 ug polyclonal rabbit anti-FASN or normal rabbit IgG, protein A magnetic beads, overnight at 4°C; immunoblot for FASN and USP2a

binding: binds
B1: ubiquitin-specific peptidase 2a (enzyme, UniProt O75604-1 1-605)
chain: MSQLSSTLKRYTESARYTDAHYAKSGYGAYTPSSYGANLAASLLEKEKLGFKPVPTSSFLTRPRTYGPSSLLDYDRGRPLLRPDITGGGKRAESQTRGTERPLGSGLSGGSGFPYGVTNNCLSYLPINAYDQGVTLTQKLDSQSDLARDFSSLRTSDSYRIDPRNLGRSPMLARTRKELCTLQGLYQTASCPEYLVDYLENYGRKGSASQVPSQAPPSRVPEIISPTYRPIGRYTLWETGKGQAPGPSRSSSPGRDGMNSKSAQGLAGLRNLGNTCFMNSILQCLSNTRELRDYCLQRLYMRDLHHGSNAHTALVEEFAKLIQTIWTSSPNDVVSPSEFKTQIQRYAPRFVGYNQQDAQEFLRFLLDGLHNEVNRVTLRPKSNPENLDHLPDDEKGRQMWRKYLEREDSRIGDLFVGQLKSSLTCTDCGYCSTVFDPFWDLSLPIAKRGYPEVTLMDCMRLFTKEDVLDGDEKPTCCRCRGRKRCIKKFSIQRFPKILVLHLKRFSESRIRTSKLTTFVNFPLRDLDLREFASENTNHAVYNLYAVSNHSGTTMGGHYTAYCRSPGTGEWHTFNDSSVTPMSSSQVRTSDAYLLFYELASPPSRM
